Laboratory results: patent US12268781B2, “Sustained-release pharmaceutical compositions comprising a therapeutic agent for treating dementia and uses thereof” (priority 2018, dated 2025)
Where a name gives a salt, the structure may show the parent alone. Read-outs that look alike come from different tables or passages of the source.

Experiments:
[1] = rats, cited from earlier work
[2] = PK study of liposomal donepezil in rats, subcutaneous injection
Description: An in vivo PK evaluation of the liposomal rivastigmine formulation was performed using 7-8 weeks old female Sprague-Dawley rats. The rats were housed in a holding room which operated on a 12-hr light/12-hr dark circadian cycle with free access to water and food.
The rats were divided into two groups (n=3 in each group), one group received subcutaneous injection of 10 mg/kg of free rivastigmine tartrate, prepared by dissolving rivastigmine tartrate in ultrapure water with a final concentration of 2 mg/mL. The other group received subcutaneous injection of 10 mg/kg of liposomal rivastigmine tartrate, prepared according to Example 1. Blood samples were collected at 15 min, 1, 2, 4, 6, 8, 24, 48, and 72 hours post-injection. Plasma samples were obtained by centrifugation, kept frozen at −80° C. and analyzed using a noncompartmental analysis model in PKSolver (Comput Methods Programs Biomed. 2010; 99(3):306-314).

[3] = female, Sprague-Dawley, rat, in vivo, sc, 10 mg/kg

COc1cc2c(cc1OC)C(=O)C(CC1CCN(Cc3ccccc3)CC1)C2 (centres unmarked) [Free Donepezil, donepezil hydrochloride]
half-life ([1]; intranasal administration): 4.2 h | half-life ([1]; oral administration): 4.3 h | AUC(0-inf) [2, 3]: 2590 ng·h/mL | half-life [2, 3]: 3.37 h | donepezil in plasma ([2]; rats, 24 hours post injection, FIG. 3): undetectable
